Assay results from PubChem BioAssay AID504467 (National Center for Advancing Translational Sciences (NCATS), 2011).
The campaign covered roughly 330,000 compounds. About 7,700 (2.3%) were called active. Inconclusive means that the source gave no clear call. Such entries were picked first, then a sample of the others. Calls come from the whole dose curve; as a rule, active = well fitted inhibition curve with a large enough effect; inconclusive = small, poorly fitted or top-dose-only effect, or effect the other way; inactive = flat fitted curve, though single readings scatter. Potencies of inconclusive entries are doubtful fits and often do not repeat.

experiment: qHTS screen for small molecules that inhibit ELG1-dependent DNA repair in human embryonic kidney (HEK293T) cells expressing luciferase-tagged ELG1; conditions: HEK293T ELG1-luciferase reporter, luminescence, 16 h, DNA damage induced by 5-fluorouridine; activity change, negative = inhibition: at 46.1 µM (top of the series); note: nearly all actives have a fitted effect of over 55% in size
Method in brief: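 Reporter activity after DNA damage by 5-fluorouridine is monitored. Compound-treated cells incubate 16 hr at 37 °C, then ONE-Glo is added for 30 min before luminescence reading.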
% is set by controls: 0 for no effect and ±100 for the full control effect; potency is the fitted concentration of half-maximal effect.

| Structure (SMILES) | Potency | activity change, negative = inhibition |
| --- | --- | --- |
| CC(C)c1ccc(-c2csc(NC(=O)c3cccs3)c2C(=O)O)cc1 | inconclusive: 29.1 µM [inhibitor, single point] | – |
| O=C(c1cc(Br)ccc1Cl)N1CCN(c2ncccn2)CC1 | inconclusive: 0.164 µM [inhibitor, partial curve, poor fit] | – |
| NC(=O)c1ccccc1NC(=O)Nc1cccc2ccccc12 | inconclusive: 4.11 µM [activator, partial curve, poor fit] | – |
| Cc1cnc(NC(=O)Cc2cccs2)s1 | inconclusive: 0.58 µM [inhibitor, single point] | – |
| Cc1cccc(N2CCN(S(=O)(=O)c3ccc4[nH]c(=O)ccc4c3)CC2)c1C | inconclusive: 20.6 µM [inhibitor, single point] | – |
| O=C(CSc1ncnc2ccccc12)c1ccc2c(c1)OCCO2 | inconclusive: 2.31 µM [activator, partial curve] | – |
| Cc1ccc(-c2noc(C3CCCN(C(=O)c4ccccc4Br)C3)n2)o1 (configuration not stated) | inconclusive: 9.2 µM [activator, partial curve] | – |
| OC1O[C@H](c2ccc3c(c2)OCO3)[C@H]2CO[C@H](c3ccc4c(c3)OCO4)[C@@H]12 (some centres not stated) | – | inactive: -23.2% |
| Cc1ccc(S(=O)(=O)N(CC(=O)NN=C2CCN(C)CC2)c2ccc(C(C)C)cc2)cc1 | inconclusive: 29.1 µM [inhibitor, single point] | – |
| C=CCN1CCN(C(=O)CCCc2ccccc2)CC1 | inconclusive: 0.73 µM [activator, full curve] | – |
| Cc1cccc(C)c1NC(=O)Cn1c(=O)c(N2CCCCC2)c(N)n(C)c1=O | inconclusive: 23.1 µM [activator, partial curve, poor fit] | – |
| COc1ccc([N+](=O)[O-])cc1N(CC(O)Cn1nnc2ccccc21)S(=O)(=O)c1ccc(C)cc1 (configuration not stated) | inconclusive: 29.1 µM [inhibitor, partial curve, poor fit] | – |
| CC(=O)N/C(=C/c1ccc2c(c1)OCO2)C(=O)Nc1ccccc1 | inconclusive: 20.6 µM [activator, single point] | – |
| CCOc1ccc(CCNC(=O)COC(=O)c2cc(OC)c(OC)c(OC)c2)cc1OCC | inconclusive: 29.1 µM [inhibitor, single point] | – |
| O=C(Cn1cc(C(F)(F)F)ccc1=O)Nc1cc(S(=O)(=O)N2CCOCC2)ccc1Cl | inconclusive: 23.1 µM [activator, partial curve, poor fit] | – |
| CON(c1nc(Cl)nc(N(C)C)n1)S(=O)(=O)c1ccccc1Cl | – | inactive: -10% |
| CCc1ccc(N2CC(C(=O)N/N=C/c3cc([N+](=O)[O-])ccc3O)CC2=O)cc1 (configuration not stated) | inconclusive: 9.2 µM [inhibitor, partial curve] | – |
| CN(C)Cc1c(-c2ccc(Cl)cc2)nc2ccccn12 | inconclusive: 20.6 µM [activator, partial curve] | – |
| C=CCNC(=O)NC(=O)Cn1c(=O)c2c(ncn2CC)n(Cc2ccccc2)c1=O | inconclusive: 9.2 µM [activator, partial curve, poor fit] | – |
| Nc1ccccc1SCC1CSc2nc3ccccc3c(=O)n21 (configuration not stated) | – | inactive: 7.49% |
| COc1ccc(C(=O)NC2CCCN(Cc3ccc(Cl)cc3)C2)c(OC)c1 (configuration not stated) | inconclusive: 23.1 µM [inhibitor, single point] | – |
| CC(C)c1cccc(C(C)C)c1NC(=O)c1ccccc1 | – | inactive: 15% |
| Cc1cc(NC(=O)c2cc(C)on2)no1 | inconclusive: 14.6 µM [activator, partial curve] | – |

| Structure (SMILES) | Potency | activity change, negative = inhibition |
| --- | --- | --- |
| CC1CCCC(C)N1/N=C/c1ccccc1F (configuration not stated) | – | inactive: 3.33% |
| Cn1c(SCC(=O)NCc2ccc3c(c2)OCO3)nc2scc(-c3cccs3)c2c1=O | active: 13 µM | – |
| COc1ccc(CCNC(=O)C2CC(c3ccc([N+](=O)[O-])cc3)=NO2)cc1 (configuration not stated) | inconclusive: 20.6 µM [activator, single point] | – |
| O=C(CN1CCN(c2ncc(C(F)(F)F)cc2Cl)CC1)NCCNc1ncc(C(F)(F)F)cc1Cl | inconclusive: 29.1 µM [inhibitor, single point] | – |
| CCOc1ccc(NC(=O)CCN2CCN(S(=O)(=O)c3ccc(Cl)cc3)CC2)cc1 | inconclusive: 23.1 µM [inhibitor, single point] | – |
| CCOc1ccc(/C(O)=C2/C(=O)C(=O)N(c3nc(C)c(C)s3)C2c2ccco2)cc1 (configuration not stated) | inconclusive: 20.6 µM [activator, partial curve, poor fit] | – |
| CN(C)CCN1C(=O)C(=O)/C(=C(/O)c2ccc(OCc3ccccc3)cc2)C1c1ccncc1 (configuration not stated) | inconclusive: 6.51 µM [activator, partial curve, poor fit] | – |
| COc1ccc(CNC(=O)c2ccc(SC)cc2OC)cc1 | – | inactive: -0.593% |
| COc1ccc(CN(CC(O)COCc2ccccc2)S(=O)(=O)c2ccccc2Br)cc1 (configuration not stated) | inconclusive: 18.3 µM [inhibitor, single point] | – |
| CCOC(=O)c1ccc(Oc2cn[nH]c2-c2ccc(OCC(=O)NN)cc2O)cc1 | – | inactive: -14.1% |
| COc1ccc2nc3c(nc2c1)CCCC3 | inconclusive: 20.6 µM [activator, partial curve] | – |
| CCOC(=O)/C=c1\s/c(=C\c2ccc(C(=O)OC)cc2)c(=O)n1CC(=O)Nc1ccccc1 | inconclusive: 6.51 µM [activator, single point] | – |
| O=C(NCC1CCCN(C(=O)Cc2ccccc2Cl)C1)c1ccc(F)cc1 (configuration not stated) | – | inactive: -10.8% |
| O=C(C1CCCN(S(=O)(=O)c2cccs2)C1)N1CCc2ccccc2C1 (configuration not stated) | inconclusive: 29.1 µM [inhibitor, partial curve, poor fit] | – |
| NS(=O)(=O)c1ccc(CNc2ccc3ccccc3n2)cc1 | inconclusive: 10.3 µM [activator, partial curve] | – |
| CCOc1cc(/C=C2\SC(=Nc3ccc(CC)cc3)NC2=O)ccc1OCC(=O)O | – | inactive: -7.22% |
| COc1ccc(/C=N/NS(=O)(=O)c2ccc(F)cc2)cc1COc1cc(F)ccc1[N+](=O)[O-] | inconclusive: 2.91 µM [inhibitor, full curve] | – |
| O=C(NCc1ccccn1)Nc1cccc(NC(=O)NCc2ccccn2)c1 | inconclusive: 18.4 µM [activator, single point] | – |
| CC1CCN(C(=O)Cn2cnc3c(cnn3C(C)(C)C)c2=O)CC1 | inconclusive: 13 µM [activator, partial curve] | – |
| COc1ccc([N+](=O)[O-])cc1NCc1ccccc1C | inconclusive: 23.1 µM [activator, partial curve, poor fit] | – |
| O=C(COc1ccc([N+](=O)[O-])cc1Cl)N1CCc2ccccc21 | inconclusive: 9.2 µM [activator, partial curve] | – |
| O=C(Cn1cnc([N+](=O)[O-])n1)N/N=C/c1ccc(O)cc1O | inconclusive: 29.1 µM [inhibitor, single point] | – |
| O=[N+]([O-])c1cccc(/C=N/NC2CCS(=O)(=O)C2)c1 (configuration not stated) | inconclusive: 23.1 µM [inhibitor, partial curve, poor fit] | – |

| Structure (SMILES) | Potency | activity change, negative = inhibition |
| --- | --- | --- |
| Cc1ccsc1/C=N/NC(=O)c1cc(-c2ccncc2)nc2ccccc12 | inconclusive: 29.1 µM [inhibitor, partial curve, poor fit] | – |
| Cc1ccc(Nc2ccc(C(=O)NC3CCCCC3)cn2)cc1 | inconclusive: 13 µM [activator, partial curve] | – |
| Cc1ccc(NC(=O)c2cccc(C(=O)Nc3ccc(C)cc3C(=O)O)c2)c(C(=O)O)c1 | inconclusive: 29.1 µM [inhibitor, single point] | – |
| N#C/C(=C/c1ccc(Br)o1)C(N)=S | – | inactive: 0% |
| COc1ccc(NC(=O)c2ccc(NCCN3C(=O)CCC3=O)c([N+](=O)[O-])c2)cc1 | inconclusive: 29.1 µM [inhibitor, partial curve, poor fit] | – |
| Cc1cccc(-n2c(C)cc(/C=N/NC(=O)c3ccc(CN4CCOCC4)cc3)c2C)c1 | – | inactive: -14% |
| C/C(=N\Nc1nc2ccccc2[nH]1)c1ccc(C)o1 | inconclusive: 5.17 µM [activator, partial curve] | – |
| Oc1ccccc1N=Cc1c(O)ccc2oc3c(c12)CCCC3 | inconclusive: 29.1 µM [inhibitor, partial curve, poor fit] | – |
| Cc1cnc(NC(=O)C2CC(=O)N(c3cccc(Cl)c3)C2)s1 (configuration not stated) | inconclusive: 5.17 µM [inhibitor, full curve] | – |
| O=S(=O)(Nc1ccncc1)c1ccc(Cl)c(Cl)c1 | – | inactive: 6.3% |
| CCCOC(=O)c1cccc(Nc2nc(-c3cccnc3)nc3ccccc23)c1 | active: 13 µM | – |
| S=C1NC[C@H](c2ccccc2)N1CC1CCCCC1 | – | inactive: -13.3% |
| COc1cc(OC)c(OC)cc1/C=C1\CC(C)C/C(=C\c2cc(OC)c(OC)cc2OC)C1=O (configuration not stated) | active: 7.3 µM | – |
| CCOC(Cn1cc(C)c(=O)[nH]c1=O)OCC | – | inactive: -0.151% |
| CCN(C(=O)c1cccc(S(=O)(=O)N(C)C)c1)C12CC3CC(CC(C3)C1)C2 | inconclusive: 23.1 µM [inhibitor, single point] | – |
| COCC1COS(=O)(=O)NC1(C)C (configuration not stated) | inconclusive: 8.2 µM [activator, partial curve, poor fit] | – |
| CC1(C)C2([N+](=O)[O-])CN(CCO)CC1([N+](=O)[O-])CN(CCO)C2 | – | inactive: 0.533% |
| CCOC(=O)C1CCCN(Cc2ccc(OCC)cc2)C1 (configuration not stated) | inconclusive: 20.6 µM [inhibitor, single point] | – |
| COc1ccc(/C=N/NC(=S)Nc2cc(C(F)(F)F)ccc2Cl)cc1 | – | inactive: 27.3% |
| Cc1cccc2c1NC(=O)/C2=C\C(=O)c1cccs1 | – | inactive: 20.2% |
| Cn1nc(OC(=O)Nc2cccc(Cl)c2)cc1C(F)(F)F | inconclusive: 18.4 µM [activator, single point] | – |

A few values from the results shown:
Cc1ccc(NC(=O)c2cccc(C(=O)Nc3ccc(C)cc3C(=O)O)c2)c(C(=O)O)c1 | Potency: inconclusive: 29.1 µM [inhibitor, single point]
COc1ccc(/C=N/NC(=S)Nc2cc(C(F)(F)F)ccc2Cl)cc1 | activity change, negative = inhibition: inactive: 27.3%
CCOC(=O)C1CCCN(Cc2ccc(OCC)cc2)C1 (configuration not stated) | Potency: inconclusive: 20.6 µM [inhibitor, single point]
COc1ccc(NC(=O)c2ccc(NCCN3C(=O)CCC3=O)c([N+](=O)[O-])c2)cc1 | Potency: inconclusive: 29.1 µM [inhibitor, partial curve, poor fit]
